In PMC6185973:
These are yes or no findings as the source states them, for the method shown. In cells and extracts the contact can be indirect. Some binding calls cover weakened binding; strength is not graded here. Sequences can lack the tags named with a protein.

By UniProt entry, the sequences of proteins in these tests, tags left out.
UniProt Q13535: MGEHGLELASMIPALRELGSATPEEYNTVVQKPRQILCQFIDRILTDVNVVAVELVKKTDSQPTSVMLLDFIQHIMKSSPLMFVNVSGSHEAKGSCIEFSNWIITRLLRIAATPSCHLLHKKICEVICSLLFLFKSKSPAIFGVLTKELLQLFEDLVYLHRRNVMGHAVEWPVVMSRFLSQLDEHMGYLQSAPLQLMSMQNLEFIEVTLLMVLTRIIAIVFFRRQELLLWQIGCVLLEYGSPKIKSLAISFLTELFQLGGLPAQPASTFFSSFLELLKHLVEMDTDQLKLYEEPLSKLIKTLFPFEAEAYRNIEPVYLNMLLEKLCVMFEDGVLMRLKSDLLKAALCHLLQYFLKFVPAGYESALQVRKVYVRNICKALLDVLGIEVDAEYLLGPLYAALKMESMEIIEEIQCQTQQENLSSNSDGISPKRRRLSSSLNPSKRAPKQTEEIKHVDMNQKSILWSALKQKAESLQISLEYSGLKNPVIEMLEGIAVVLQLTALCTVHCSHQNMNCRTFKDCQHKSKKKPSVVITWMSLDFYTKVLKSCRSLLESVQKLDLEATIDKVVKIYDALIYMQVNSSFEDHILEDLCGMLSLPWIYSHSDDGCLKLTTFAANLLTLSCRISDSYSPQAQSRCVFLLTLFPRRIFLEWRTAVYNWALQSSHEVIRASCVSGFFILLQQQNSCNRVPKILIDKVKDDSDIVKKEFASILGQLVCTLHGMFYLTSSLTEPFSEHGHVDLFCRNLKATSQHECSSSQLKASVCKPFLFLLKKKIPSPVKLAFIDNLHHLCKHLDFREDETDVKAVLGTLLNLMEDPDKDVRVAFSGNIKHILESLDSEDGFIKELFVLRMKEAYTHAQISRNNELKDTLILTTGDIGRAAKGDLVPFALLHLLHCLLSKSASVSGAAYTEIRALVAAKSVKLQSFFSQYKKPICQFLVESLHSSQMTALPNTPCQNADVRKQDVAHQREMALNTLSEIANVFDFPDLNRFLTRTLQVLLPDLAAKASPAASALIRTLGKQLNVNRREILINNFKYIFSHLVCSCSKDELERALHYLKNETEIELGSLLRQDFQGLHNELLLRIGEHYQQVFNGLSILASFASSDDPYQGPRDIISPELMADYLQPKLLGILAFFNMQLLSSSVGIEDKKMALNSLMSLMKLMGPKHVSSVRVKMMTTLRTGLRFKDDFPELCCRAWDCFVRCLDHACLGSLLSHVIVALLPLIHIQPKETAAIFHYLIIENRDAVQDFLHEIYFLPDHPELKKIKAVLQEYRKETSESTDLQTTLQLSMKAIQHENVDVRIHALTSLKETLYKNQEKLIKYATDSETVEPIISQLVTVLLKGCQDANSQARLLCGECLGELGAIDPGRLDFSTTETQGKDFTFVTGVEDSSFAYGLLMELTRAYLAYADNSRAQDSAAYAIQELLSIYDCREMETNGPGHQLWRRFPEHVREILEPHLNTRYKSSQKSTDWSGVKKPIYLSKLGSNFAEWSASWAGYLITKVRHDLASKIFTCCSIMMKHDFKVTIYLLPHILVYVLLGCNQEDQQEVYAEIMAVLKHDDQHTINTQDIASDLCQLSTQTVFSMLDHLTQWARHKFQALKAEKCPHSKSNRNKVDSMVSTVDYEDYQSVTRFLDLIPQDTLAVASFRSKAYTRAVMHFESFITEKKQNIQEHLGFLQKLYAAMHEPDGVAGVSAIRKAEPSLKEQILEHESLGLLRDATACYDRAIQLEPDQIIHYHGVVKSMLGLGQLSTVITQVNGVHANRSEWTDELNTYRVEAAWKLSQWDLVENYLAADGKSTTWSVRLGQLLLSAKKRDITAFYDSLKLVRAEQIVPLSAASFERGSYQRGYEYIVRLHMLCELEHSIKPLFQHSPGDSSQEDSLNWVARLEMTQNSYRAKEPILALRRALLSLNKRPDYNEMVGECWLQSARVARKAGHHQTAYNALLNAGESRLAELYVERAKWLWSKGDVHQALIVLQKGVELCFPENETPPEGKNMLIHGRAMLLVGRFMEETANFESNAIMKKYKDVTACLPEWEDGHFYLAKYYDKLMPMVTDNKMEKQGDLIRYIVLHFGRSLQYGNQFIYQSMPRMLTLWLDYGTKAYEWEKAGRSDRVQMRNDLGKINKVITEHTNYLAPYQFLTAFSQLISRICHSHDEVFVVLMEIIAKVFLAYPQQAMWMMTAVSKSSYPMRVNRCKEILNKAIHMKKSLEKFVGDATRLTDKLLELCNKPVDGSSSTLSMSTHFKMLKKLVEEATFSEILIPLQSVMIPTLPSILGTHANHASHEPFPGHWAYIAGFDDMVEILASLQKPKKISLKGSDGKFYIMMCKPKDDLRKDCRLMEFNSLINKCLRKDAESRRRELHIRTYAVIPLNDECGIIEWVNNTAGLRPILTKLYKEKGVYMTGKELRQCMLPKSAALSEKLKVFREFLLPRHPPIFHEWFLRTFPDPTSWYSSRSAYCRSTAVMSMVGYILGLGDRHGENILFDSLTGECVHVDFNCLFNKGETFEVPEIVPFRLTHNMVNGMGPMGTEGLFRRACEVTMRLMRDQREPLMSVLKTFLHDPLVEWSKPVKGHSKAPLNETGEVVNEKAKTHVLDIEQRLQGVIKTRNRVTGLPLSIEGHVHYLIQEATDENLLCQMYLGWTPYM

Biological target: T1, PLK4-FLAG (UniProt O00444)
T1 sequence: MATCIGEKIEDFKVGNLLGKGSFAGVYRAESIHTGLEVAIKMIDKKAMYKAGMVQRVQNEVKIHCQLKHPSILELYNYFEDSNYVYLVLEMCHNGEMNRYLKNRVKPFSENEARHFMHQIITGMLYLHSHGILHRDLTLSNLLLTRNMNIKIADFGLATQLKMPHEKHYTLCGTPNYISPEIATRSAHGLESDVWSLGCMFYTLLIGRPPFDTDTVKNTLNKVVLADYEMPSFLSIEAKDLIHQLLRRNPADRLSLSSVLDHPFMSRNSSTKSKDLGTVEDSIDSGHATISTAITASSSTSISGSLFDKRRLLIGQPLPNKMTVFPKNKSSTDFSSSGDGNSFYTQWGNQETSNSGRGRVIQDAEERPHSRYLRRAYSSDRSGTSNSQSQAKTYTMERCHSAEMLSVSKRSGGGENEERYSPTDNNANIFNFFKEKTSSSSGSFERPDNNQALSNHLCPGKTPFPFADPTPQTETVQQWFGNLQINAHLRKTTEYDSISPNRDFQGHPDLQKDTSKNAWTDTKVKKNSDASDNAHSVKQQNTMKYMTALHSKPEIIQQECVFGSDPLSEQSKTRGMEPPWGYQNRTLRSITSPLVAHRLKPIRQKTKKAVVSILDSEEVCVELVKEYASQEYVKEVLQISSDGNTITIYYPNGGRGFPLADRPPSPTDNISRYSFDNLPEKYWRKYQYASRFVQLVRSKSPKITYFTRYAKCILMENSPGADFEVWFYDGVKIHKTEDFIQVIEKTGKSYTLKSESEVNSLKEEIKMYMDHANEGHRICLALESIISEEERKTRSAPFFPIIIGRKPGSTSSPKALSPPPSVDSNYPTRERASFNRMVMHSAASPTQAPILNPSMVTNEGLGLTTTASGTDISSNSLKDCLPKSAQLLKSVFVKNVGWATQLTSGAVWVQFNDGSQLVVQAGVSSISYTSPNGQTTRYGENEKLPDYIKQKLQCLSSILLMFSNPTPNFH
Test: co-IP; Hep3B cells expressing PLK4-FLAG and ATR-GFP; lysate precleared with sepharose beads 2 h at 4 °C, incubated overnight with anti-FLAG antibody, washed three times with 0.5% NP40 cell lysate; ATR-GFP detected by immunoblot with anti-GFP antibody

## ATR-GFP (from UniProt Q13535 1-2644)
  binding: binds
